Results from the supplement of paper PMC12889115.
The other results are listed elsewhere or left out. Values are raw readings; no control value is given beside them.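 In the initial screen, polymyxin B was used at a concentration that permeabilizes Salmonella's outer membrane but not its inner membrane. Maximum growth was set by DMSO wells with or without polymyxin B. Since plates varied, data were ranked per plate, and compounds giving the lowest OD600 advanced as hits.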

Tested on: Salmonella enterica serovar Typhimurium SL1344
Assay: bacterial growth OD600 after 18 h with compound and polymyxin B; higher = more bacterial growth (less inhibition)
Details: 50 µM, Mueller-Hinton broth

Row | Structure (SMILES) | bacterial growth OD600 (polymyxin B 1 µg/mL) | bacterial growth OD600 (polymyxin B 0.75 µg/mL)
1 | C=CCC(=O)N1CCC2(CCCN(CC3CC3)C2=O)C1 (stereo unspecified) | 1.15 | 
2 | Cc1ccc2c(c1)CN(Cc1ccc(OCCO)cc1)CC(c1ccsc1)O2 (stereo unspecified) |  | 0.085
3 | CCC1(C2CCN(C(=O)[C@H]3C[C@@H]4C=C[C@H]3C4)CC2)NC(=O)N(Cc2ccc3c(c2)OCO3)C1=O (stereo partly specified) |  | 0.774
4 | CCOC(=O)CC1COCCN1C(=O)c1cn(Cc2ccccc2Cl)nn1 (stereo unspecified) | 0.883 | 
5 | Cc1oc(-c2cccs2)nc1CN1CCCC(Nc2ccccc2)C1 (stereo unspecified) | 0.704 | 
6 | Cc1ccc(N2CCC(C3CCN(c4ncccn4)CC3)C2)nc1 (stereo unspecified) |  | 0.848
7 | Cc1nn(C)cc1CN(C)CC1(O)CCCN(Cc2ccc(F)cc2)C1=O (stereo unspecified) | 0.929 | 
8 | CCOC(=O)c1ccc(CNC(=O)C2CC(=O)c3sc(NC(=O)Cc4ccccc4)nc3C2)o1 (stereo unspecified) |  | 0.803
9 | Cc1ccccc1CC(C1CCN(C(=O)/C=C/c2ccccc2)CC1)N(C)C(=O)C1CCC1 (stereo unspecified) |  | 0.002
10 | COCCN1CCN(C(=O)CC2(c3ccccc3C)CC(=O)N(Cc3ccncc3)C2=O)CC1 (stereo unspecified) |  | 0.881
11 | CCOc1ccccc1CN1CCN(Cc2cnn(CC)c2)CC1CCO (stereo unspecified) | 0.995 | 
12 | CC(C)(C)CN1CCC(C2CCN(C(=O)c3csnn3)CC2)C1 (stereo unspecified) |  | 0.802
13 | CCN(CC)CC(O)COc1ccc(CN2CCCN(C(C)=O)CC2)cc1OC (stereo unspecified) |  | 0.858
14 | CCCCN(Cc1ccccc1)C(=O)c1cc(NC(C)=O)c2c(c1)ncn2CCc1ccccn1 |  | 0.801
15 | O=C(NC1CCCCCC1)C1CCCN(C2CCN(C(=O)C3CC3)CC2)C1 (stereo unspecified) | 0.853 | 
16 | CN(CC1(O)CCCN(Cc2ccc(F)c(F)c2)C1=O)C1CCOCC1 (stereo unspecified) | 1.04 | 

Of the compounds above, 2 contain a thiophene ring, fused or not.
Row | Structure (SMILES) | bacterial growth OD600 (polymyxin B 1 µg/mL) | bacterial growth OD600 (polymyxin B 0.75 µg/mL)
2 | Cc1ccc2c(c1)CN(Cc1ccc(OCCO)cc1)CC(c1ccsc1)O2 (stereo unspecified) |  | 0.085
5 | Cc1oc(-c2cccs2)nc1CN1CCCC(Nc2ccccc2)C1 (stereo unspecified) | 0.704 | 

Next entries:

Row | Structure (SMILES) | bacterial growth OD600 (polymyxin B 1 µg/mL) | bacterial growth OD600 (polymyxin B 0.75 µg/mL)
17 | COc1ccc(OCc2cc(C(=O)N3CCCCCCC3)n[nH]2)c(Cl)c1 |  | 0.526
18 | CCOC(=O)CN(C)c1ccc(-c2nc(Cc3ccc(OC)cc3)no2)cn1 | 0.775 | 
19 | CC(C)Cc1nc2cc(NS(=O)(=O)N(C)C)cc(C(=O)N3CCCCC3c3cccnc3)c2n1C (stereo unspecified) |  | 0.846
20 | CCN1CCCC(CCC(=O)NCc2ccc(OC)cc2OC)C1 (stereo unspecified) | 1.08 | 
21 | CCn1cc(CN2CCCC(C(=O)c3ccc4cc(OC)ccc4c3)C2)c(C)n1 (stereo unspecified) | 0.749 | 
22 | CN(C)c1ncccc1CNS(=O)(=O)c1cccc(F)c1 | 0.96 | 
23 | CCOC(=O)C1(CCc2ccccc2)CCCN(C(=O)C2=C(C)OCCO2)C1 (stereo unspecified) | 0.723 | 
24 | C#CCN(CC=C)C(=O)c1cc(OC)ccc1OC1CCN(C(C)=O)CC1 | 0.974 | 
25 | CC(C)Cc1nc2cc(NS(=O)(=O)N(C)C)cc(C(=O)NCC(C)Oc3cccnc3)c2n1C (stereo unspecified) |  | 0.766
26 | Cn1cc(CCC(=O)NC2CC(=O)N(Cc3ccccc3Cl)C2)cn1 (stereo unspecified) | 0.92 | 
27 | O=C1CCCN1CCCC(=O)N1CCCC(CCc2ccccc2)C1 (stereo unspecified) |  | 0.853
28 | Clc1ccc(CN2CCC(C3CCN(Cc4ncc[nH]4)CC3)C2)cc1 (stereo unspecified) |  | 0.777
29 | COc1cc(=O)n2c(c1C(=O)N(C)Cc1nonc1C)CCN(Cc1cccc3cccnc13)CC2 |  | 0.81
30 | O=C(c1cc(COc2cccc(C(F)(F)F)c2)[nH]n1)N1CCCC(CO)C1 (stereo unspecified) |  | 0.812
31 | COc1ccccc1C1(CC(=O)N2CCC(C(O)c3cccs3)CC2)CC(=O)N(C)C1=O (stereo unspecified) |  | 0.828
